The source of these data is patent US20210333272.

Chains of the proteins cited; added tags and fusions are not shown. A line that says so, or that is headed by a name, gives the form on record, which may keep a tag or linker. Residues count along the entry.
UniProt P08962, 2-238: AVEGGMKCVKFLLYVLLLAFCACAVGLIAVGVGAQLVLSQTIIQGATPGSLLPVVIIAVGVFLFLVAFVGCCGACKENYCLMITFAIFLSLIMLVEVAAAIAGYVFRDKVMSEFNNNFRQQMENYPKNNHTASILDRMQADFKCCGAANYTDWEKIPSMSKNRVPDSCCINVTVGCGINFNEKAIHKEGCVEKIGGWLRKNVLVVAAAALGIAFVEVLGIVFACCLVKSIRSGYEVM
MUC-1 (on MCF-7-derived small extracellular vesicles) (Homo sapiens), one chain, as listed by the source, chain 2 of 2: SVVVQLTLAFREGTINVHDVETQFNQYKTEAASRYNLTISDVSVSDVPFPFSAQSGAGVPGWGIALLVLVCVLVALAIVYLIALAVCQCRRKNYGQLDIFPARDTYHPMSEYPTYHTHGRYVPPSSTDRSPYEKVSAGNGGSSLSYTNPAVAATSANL
MUC-1 (on MCF-7-derived small extracellular vesicles) (Homo sapiens), one chain, as listed by the source, chain 1 of 2: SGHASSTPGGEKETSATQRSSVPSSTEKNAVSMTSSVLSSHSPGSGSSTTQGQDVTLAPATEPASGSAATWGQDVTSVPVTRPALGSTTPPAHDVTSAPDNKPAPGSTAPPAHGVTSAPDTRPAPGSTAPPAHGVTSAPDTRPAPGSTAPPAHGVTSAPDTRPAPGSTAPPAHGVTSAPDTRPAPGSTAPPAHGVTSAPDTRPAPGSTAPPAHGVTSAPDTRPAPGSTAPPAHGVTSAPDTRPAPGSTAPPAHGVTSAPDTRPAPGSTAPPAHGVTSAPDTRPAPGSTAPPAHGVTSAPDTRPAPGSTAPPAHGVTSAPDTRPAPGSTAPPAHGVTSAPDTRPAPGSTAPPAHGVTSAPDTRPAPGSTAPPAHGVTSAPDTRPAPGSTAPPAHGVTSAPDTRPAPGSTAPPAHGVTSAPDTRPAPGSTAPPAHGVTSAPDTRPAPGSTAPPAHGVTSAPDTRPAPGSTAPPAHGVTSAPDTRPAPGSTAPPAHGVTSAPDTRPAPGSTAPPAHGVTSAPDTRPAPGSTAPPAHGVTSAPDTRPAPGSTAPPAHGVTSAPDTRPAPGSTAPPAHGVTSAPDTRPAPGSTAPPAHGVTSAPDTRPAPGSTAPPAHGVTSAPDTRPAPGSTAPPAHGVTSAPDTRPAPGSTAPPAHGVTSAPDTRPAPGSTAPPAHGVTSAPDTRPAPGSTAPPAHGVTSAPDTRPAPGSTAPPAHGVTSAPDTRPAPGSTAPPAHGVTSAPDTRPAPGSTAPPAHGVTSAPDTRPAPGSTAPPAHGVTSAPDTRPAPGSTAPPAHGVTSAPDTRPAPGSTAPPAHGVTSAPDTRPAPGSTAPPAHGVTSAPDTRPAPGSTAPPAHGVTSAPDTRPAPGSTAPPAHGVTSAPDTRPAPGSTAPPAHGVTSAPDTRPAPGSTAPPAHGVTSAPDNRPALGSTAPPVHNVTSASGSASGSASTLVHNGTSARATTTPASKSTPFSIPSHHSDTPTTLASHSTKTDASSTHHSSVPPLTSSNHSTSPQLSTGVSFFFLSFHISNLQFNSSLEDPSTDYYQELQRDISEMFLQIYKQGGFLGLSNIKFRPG

Test in all cases: binding assay
Data set [1] concerns healthy human serum-derived small extracellular vesicles (MUC-1 not expressed) (Homo sapiens). The conditions noted are these: specificity control; no response with healthy serum sEVs lacking MUC-1; protein on the cell surface; protein details: EXOP-500A-1; single-stranded DNA.
The test system of data set [2] is MUC-1 (on MCF-7-derived small extracellular vesicles) (Homo sapiens). The conditions noted are these: imprinted polymer sensor; significant fluorescence quenching with MCF-7 sEVs; protein on the cell surface; protein details: displayed on MCF-7 sEVs …; single-stranded DNA.
In data set [3] the target is CD63 (on PC3-derived small extracellular vesicles) (Homo sapiens) (UniProt P08962). The conditions noted are these: imprinted polymer sensor; only slight nonspecific quenching with PC3 sEVs; protein on the cell surface; single-stranded DNA.

At least one result comes from cells or an extract, where the contact may be indirect. For part of these data: A negative result means that nothing was seen under these conditions. For part of these data: Construct, isoform or probe ends are uncertain for at least one entry.

As to “CACAAATCTGTCGCTGAGTAGCAGTTGATCCTTTGGATACCCTGG [MUC-1 DNA aptamer with ODN2 extension]”, the binding result in data set [1] is reported as “no binding”; in data set [2] it was “binds”.
For the sequence “CACAAATCTGTCGCTGAGTATGTGCGGCGAAATATTATAGCTACCGCAATTA [random polynucleotide with ODN2 extension]”, in data set [3], the binding result was “no binding”.
